# Experimental data published in PubChem BioAssay AID651595 (National Center for Advancing Translational Sciences (NCATS), 2012).
# Fewer than 10 of roughly 1,100 compounds were called active. About 6% were inconclusive and are not listed. The call rests on the fitted dose curve; in most records, active means well fitted cell-killing curve with a large enough effect; inconclusive means small, poorly fitted or top-dose-only effect; inactive means flat fitted curve, though single readings scatter. Some of the results follow.
# Assay: qHTS of Nrf2 Activators: Hit Validation in Cytotox Assay;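 further: compound exposure lasted 24 hours before the ATP readout; 0% is about no effect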
# Settings: Cell viability counter-screen for Nrf2 activator hits; series mostly up to 46.1 µM; activity change, negative = cytotoxicity: at the top concentration
# How it was run: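 AREc32_fluc cells plated overnight, then treated at 7 concentrations for 24 h at 37 °C. Viability from intracellular ATP by CellTiter-Glo luminescence after 30 min at room temperature; cytotoxic compounds flagged active.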
row,Compound,"activity change, negative = cytotoxicity"
1,c1ccc(N/N=C2\CCCc3ccccc32)nc1,inactive: 8.99%
2,Brc1ccccc1C1N=C(c2ccccc2)NO1 (centres undefined),inactive: 9.2%
3,CCN1CCN(c2sc(S(C)(=O)=O)nc2S(=O)(=O)c2ccc(Cl)cc2)CC1,inactive: 2.42%
4,CCc1cc2c(NCc3ccco3)ncnc2s1,inactive: -10.3%
5,O=c1oc2ccccc2cc1-c1nc(-c2cccs2)cs1,inactive: 2.24%
6,COc1c(C(=O)Nc2nnc(C3CC3)s2)csc1Cl,inactive: 6.48%
7,Cc1nc(NC(=O)c2ccc(Br)o2)ccc1Br,inactive: -2.17%
8,COC(CN(C(=O)CCl)C(C(=O)NC1CCCCC1)c1ccccc1C)OC (centres undefined),inactive: 10.4%
9,CC(=O)NCCNc1nc2cc(-c3cscc3C)sc2c(=O)n1C,inactive: 7.29%
10,Cc1cc(NCc2ccco2)n2c(nc3ccccc32)c1C#N,inactive: 4.15%
11,Cc1cc(NC(=S)NC(=O)c2ccco2)c2ccccc2n1,inactive: 12.7%
12,O=C(c1ccc(S(=O)(=O)Cc2cc(F)ccc2F)c([N+](=O)[O-])c1)N1CCCC1,inactive: -1.28%
13,COC(=O)c1ccccc1NC(=O)c1cccs1,inactive: 1.6%
14,COC(=O)c1c(NC(=O)/C=C/c2ccco2)sc2c1CCC2,inactive: 4.26%
15,O=[N+]([O-])c1cccc2ccc(/C=C/c3cccc(Br)c3)nc12,inactive: -2.52%
16,Nc1c(C(=O)C2CC2)sc2nc(-c3cccs3)cc(C(F)(F)F)c12,inactive: -0.311%
17,O=C(Nc1cccc([N+](=O)[O-])c1)Nc1cccs1,inactive: 9.78%
18,Cc1nn(-c2ccc3ccccc3c2)c(=O)c2ccccc12,inactive: 4.52%
19,Cc1ccc(C)c(NC(=O)COC(=O)c2cc(=O)c3ccccc3o2)c1,inactive: -5.65%
20,O=C1Nc2ccccc2/C1=C/c1ccccc1Cl,inactive: 1.16%
21,Cc1cc(=O)oc2c(C(=O)/C=C/c3ccccc3)c(O)ccc12,inactive: -0.125%
22,COc1ccccc1CC1S/C(=N/N=C/c2ccco2)NC1=O (centres undefined),inactive: -0.512%
23,O=C(Nc1ccc2nsnc2c1)c1cccs1,inactive: 2.83%
24,C=C1C(=O)[C@]23C[C@H]1CCC2[C@@]1(C)C(C[C@@H]3O)[C@](C)(C(=O)O)CC[C@@H]1O (some centres undefined),inactive: 4.89%

row,Compound,"activity change, negative = cytotoxicity"
1,O=C(CSc1ncnc2c1oc1ccccc12)NCc1ccco1,inactive: -5.91%
2,COC(=O)c1sccc1NC(=O)c1ccc(Br)s1,inactive: -0.27%
3,Cc1csc(NC(=O)Nc2ccccc2[N+](=O)[O-])n1,inactive: -1.39%
4,CC(/C=N/n1c(-c2ccc(Cl)cc2)n[nH]c1=S)=C\c1ccco1,inactive: 8.05%
5,COc1ccc(Br)cc1/C=N/Nc1ccccn1,inactive: 1.96%
6,Cc1cc(Br)cn2c(Cc3ccccc3)c(-c3ccco3)nc12,inactive: -14%
7,O=C(/C=C/Nc1ccc(F)cc1)c1cccs1,inactive: 0.227%
8,O=C1CC(c2ccco2)CC(O)=C1C=Nc1cc(Cl)ccc1O (centres undefined),inactive: 4.15%
9,Cc1ccc2cccnc2c1NC(=S)NC(=O)c1ccccc1,inactive: 9.5%
10,O=C(CNC(=S)NC(=O)c1ccccc1Br)c1ccccc1,inactive: -3.7%
11,O=[N+]([O-])c1ccc(Cl)cc1N/N=C/c1ccncc1,inactive: 6.03%
12,CC(=O)c1sc(Nc2ccccc2)nc1C,inactive: 6.32%
13,NC(=O)c1cc2c3ccccc3ccn2c1-c1ccccc1,inactive: 5.99%
14,COc1ccc(Cl)cc1C(=O)NC(=S)Nc1nc(C)cc(C)n1,inactive: 1.2%
15,Cc1ccc([N+](=O)[O-])cc1NC(=S)NC(=O)c1ccco1,inactive: 13.8%
16,Cc1cccc(C)c1OCC(=O)N/N=C/C=C/c1ccco1,inactive: 3.17%
17,N#Cc1sc2nc(-c3ccccc3)cc(C(F)(F)F)c2c1N,inactive: 14.9%
18,S=c1[nH]nc(-c2ccncc2)n1/N=C/C=C/c1ccco1,inactive: 6.05%
19,c1ccc(-c2cc3c(-n4cccc4)ncnc3o2)cc1,inactive: 0.0297%
20,Cc1ccc2nsnc2c1NC(=S)NC(=O)c1ccco1,inactive: 20.8%
21,O=C(CSc1ncnc2c1oc1ccccc12)c1cccs1,inactive: 4.02%
22,Oc1ccccc1C1CC(c2cccs2)=NC(c2ccc(Cl)cc2)N1 (centres undefined),inactive: 4.41%
23,O=C(O)c1ccc(/C=C2\COc3ccccc3C2=O)cc1,inactive: 5.51%
24,O=[N+]([O-])c1ccc(Cl)c(/C=N/n2c(-c3ccncc3)n[nH]c2=S)c1,inactive: 4.03%

row,Compound,"activity change, negative = cytotoxicity"
1,O=C(CC(=O)Nc1ccccc1[N+](=O)[O-])Nc1ccccc1[N+](=O)[O-],inactive: 5.85%
2,O=C(Nc1ccc2ccccc2c1)c1ccc(Br)o1,inactive: -0.92%
3,CCCN(C(=O)c1ccco1)c1nnc(-c2ccccc2C)s1,inactive: -3.72%
4,C#CCn1c(=NC(=O)c2cccs2)sc2cccc(OC)c21,inactive: -9.62%
5,Cc1cc(C)n(-c2nc3ccccc3c(=O)n2OCc2ccc(F)cc2)n1,inactive: 3.49%
6,COC(=O)c1cc(S(=O)(=O)C(C)C)c(S(C)=O)s1 (centres undefined),inactive: 9.85%
7,O=c1c2ccccc2oc2ccc(-c3ccc4cc[nH]c4c3)cc12,inactive: -20.1%
8,Brc1ccc(-c2csc(N/N=C/c3ccco3)n2)cc1,inactive: 8.79%
9,Cn1c(/C=C/c2cccc([N+](=O)[O-])c2)c([N+](=O)[O-])c(=O)n(C)c1=O,inactive: 14.9%
10,COc1ccc2c(c1)C1=NN(/C(C)=C/C(C)=O)C(c3cccc(F)c3)C1CC2 (centres undefined),inactive: 4.09%
11,Nc1nccc(/C=C/c2c(F)cccc2Cl)n1,inactive: 6.06%
12,Cc1cc(C)c2oc(-c3ccc(C)c(NC(=O)/C=C/c4ccco4)c3)nc2c1,inactive: -25.6%
13,O=C(NN/C(=N/S(=O)(=O)c1ccc(Cl)cc1)c1ccccc1)c1cccc(Cl)c1,inactive: -13.4%
14,O=C(Nc1cccc2ncccc12)c1ccc(Cl)cc1,inactive: 3.85%
15,Brc1cc(Cc2nnc(-c3ccccc3)o2)c(Br)s1,inactive: 6.39%
16,Nc1ccc2c(Cl)cc(Cl)cc2c1,inactive: -0.182%
17,COC(=O)c1sccc1NC(=O)c1cccc(OC)c1,inactive: -4.2%
18,COC(=O)[C@@]1(Sc2ccc(C)cc2)CC(=O)N(C(=O)/C=C/c2ccccc2)[C@@H]1c1ccccc1,inactive: 9.18%
19,CC(C)Cc1cc(-c2ccco2)c(C#N)c(N)n1,inactive: 8.99%
20,N#Cc1ccc(-c2ccco2)nc1SCc1ccccc1,inactive: -18.2%
21,Cn1c(/N=C(\N)c2ccccc2)nc2ccccc21,inactive: -3.63%
22,N#CC1=C(N)Oc2c(ccc3ccccc23)C1c1ccsc1 (centres undefined),inactive: -24.1%
23,Cc1ccccc1/C=C1\C(=O)Nc2ccc(F)cc21,inactive: -10.9%
24,Oc1ccc(Cl)cc1-c1cc(-c2ccco2)[nH]n1,inactive: -5.23%

row,Compound,"activity change, negative = cytotoxicity"
1,Cc1ccc2c(N)c(C(=O)c3ccccc3)sc2n1,inactive: -0.845%
2,Cc1csc(NC(=S)NC(=O)c2ccccc2)n1,inactive: -0.679%
3,O=C(Nc1cccc(F)c1)c1cc(-c2ccco2)nc2ccccc12,inactive: -0.517%
4,Cc1nn(-c2cccc(C(F)(F)F)c2)c(=O)c2ccccc12,inactive: 0.43%
5,CC(=O)Nc1ccc(N=Nc2ccccc2)cc1[N+](=O)[O-],inactive: -3.62%
6,CCOc1ccccc1NC(=S)NC(=O)c1ccco1,inactive: -1.64%
7,O=C(/C=C/c1ccc(-c2ccccc2[N+](=O)[O-])o1)c1ccc(Br)cc1,inactive: -2.62%
8,C=C(C)CNC(=S)N/N=C(\C)c1ccc(Cl)s1,inactive: -0.577%
9,COc1cc(-c2noc(-c3cccs3)n2)cc(OC)c1OC,inactive: 4.81%
10,CN1C2CCC1/C(=C\c1ccc(F)cc1)C(=O)/C2=C/c1ccc(F)cc1,inactive: -13.6%
11,Cc1cc(CNC(=O)c2cccc([N+](=O)[O-])c2)c2ccccc2n1,inactive: -0.688%
12,c1cncc(-c2nc(NCc3ccco3)c3ccccc3n2)c1,inactive: 4.7%
13,FC(F)(F)c1ccccc1Cc1c(-c2ccccc2)nc2c3ccccc3ccn12,inactive: -6.46%
14,COc1ccc(Cl)cc1NC(=O)c1cc(-c2ccco2)on1,inactive: 10.5%
15,Cc1ccc(S(=O)(=O)c2nc(S(C)(=O)=O)sc2N2CCN(C)CC2)cc1,inactive: 9.52%
16,Cc1ccccc1OCC(=O)Nc1ccccc1CO,inactive: 11.9%
17,COc1ccc(C(C#N)=C2C=CC(=NO)C=C2)cc1,inactive: -1.04%
18,O=C1CC(C(=O)Nc2ccc(Cl)c(Cl)c2)S/C(=N\N=C\c2ccco2)N1 (centres undefined),inactive: 11.6%
19,O=[N+]([O-])c1cccc(-c2nnc(-c3ccccc3)o2)c1,inactive: 5.23%
20,O=C(/C=C/c1ccco1)NCC(=O)N/N=C/c1ccc(Cl)cc1,inactive: 3.22%
21,Clc1ccc2nc(-c3ccco3)c(Cc3ccccc3)n2c1,inactive: -25.8%
22,Nn1c(-c2ccccc2)nc2cc(Cl)ccc2c1=O,inactive: -1.16%
23,O=C(c1ccco1)c1cc2c(ccc3ccccc32)oc1=O,inactive: 11.4%
24,Cc1nc2ccccc2c(=O)n1NCc1cc(Br)cs1,inactive: -2.41%

row,Compound,"activity change, negative = cytotoxicity"
1,COc1ccccc1Nc1nc2ccccc2n2cnnc12,inactive: 7.57%
2,O=C(/C=C/c1ccco1)Nc1ccc(Cl)c(-c2nc3cc(Cl)ccc3o2)c1,inactive: -23.6%
3,COC(=O)[C@@H]1Cc2c([nH]c3ccccc23)C(C)(C)N1C(=O)CCl,inactive: 19.8%
4,CC(C)CCn1c(O)c(N=Nc2ccccn2)c2ccccc21,inactive: 5.08%
5,O=C(CN1CCN(Cc2ccccc2Cl)CC1)N/N=C/C=C/c1ccco1,inactive: -2.05%
6,CCCc1nc([N+](=O)[O-])c(S(=O)(=O)c2ccccc2)n1CC(C)C,inactive: -0.414%
7,c1coc(-c2ccnc3nc(-n4cccc4)nn23)c1,inactive: 6.84%
8,COc1nc(-c2ccccc2)cc(-c2ccccc2)n1,inactive: 0.23%
9,COc1cc(OC)c(NC(=O)c2ccco2)cc1Cl,inactive: -3.27%
10,O=C(CCS(=O)(=O)c1ccccc1)Nc1nc2ccc(F)cc2s1,inactive: 17.2%
11,CC1Oc2ccccc2OC1C(=O)Nc1ccccn1 (centres undefined),inactive: 10.4%
12,O=C(CN1CCCCC1)Nc1nnc(-c2ccccc2)s1,inactive: 0.807%
13,Oc1c(-c2cc(-c3ccco3)[nH]n2)ccc2ccccc12,inactive: -16.1%
14,O=C(O)CCCCCN1C(=O)/C(=C\c2ccncc2)SC1=S,inactive: -4.34%
15,c1cc2c3c(cccc3c1)NN=N2,inactive: 0.637%
16,CCCNC(=O)c1ccc(S(=O)(=O)c2ccc(OC)cc2)c([N+](=O)[O-])c1,inactive: 6.12%
17,O=C(Nc1ccccc1F)c1ccc(-c2cccc([N+](=O)[O-])c2)o1,inactive: -1.55%
18,O=C(N=Nc1c(O)[nH]c2ccccc12)c1ccco1,inactive: -20.5%
19,COc1ccccc1NC(=O)/C(C#N)=C/C=C/c1ccco1,inactive: -3.13%
20,Cc1c(=O)n(OCc2ccc(Cl)cc2)c2ccccc2[n+]1[O-],inactive: -2.39%
21,Cc1ccc(-c2nc3sc(C#N)c(N)n3c(=O)c2C#N)cc1,inactive: -0.164%
22,CC(C)=NNc1cnnc2ccc([N+](=O)[O-])cc12,inactive: -2.1%
23,O=c1c(-c2ccco2)[n+]([O-])c2ccccc2n1OCc1ccccc1,inactive: 4.78%

# Structural class: the entries above containing an aryl thioether with sulfur outside any ring (four)
row,Compound,"activity change, negative = cytotoxicity"
1,O=C(CSc1ncnc2c1oc1ccccc12)NCc1ccco1,inactive: -5.91%
21,O=C(CSc1ncnc2c1oc1ccccc12)c1cccs1,inactive: 4.02%
18,COC(=O)[C@@]1(Sc2ccc(C)cc2)CC(=O)N(C(=O)/C=C/c2ccccc2)[C@@H]1c1ccccc1,inactive: 9.18%
20,N#Cc1ccc(-c2ccco2)nc1SCc1ccccc1,inactive: -18.2%
